Tags and fusion partners may be left off the protein sequences shown.
Tested on: T1, KstR-His (Nocardia terpenica IFM 0406)
T1 sequence (looked up): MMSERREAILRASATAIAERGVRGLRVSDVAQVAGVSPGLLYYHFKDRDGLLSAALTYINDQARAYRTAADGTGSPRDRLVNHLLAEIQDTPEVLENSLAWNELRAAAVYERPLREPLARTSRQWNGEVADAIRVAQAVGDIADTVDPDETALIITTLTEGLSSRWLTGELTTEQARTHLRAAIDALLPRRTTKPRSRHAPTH
Experiment: EMSA
Conditions: EMSA and DNase I footprinting; recombinant protein; residues 1-203; protein details: C-terminal His6; probe letters rebuilt from the primers and the genome

## GCAGCGCGGCGACGGCTTCGACACCGTGGATCTGCAAGCGTTCGCACAGGGCCGCCGGGGCGGACGCTACTGGTTCACCCGCGGCTGGAACGTGCCCGCGACCGCGGCCTGGGCGGCCGGATCGATCTTCGGCATCCTCACCGTCGACACCACGCTCTACACCGGCCCGCTCGCGGGCATCGCGGGGGGGATCGATGTGAGCACCCTCGGCTCGGCCCTGGTCACCGCCGTGATCTACCCGATCGCGCTGCGGCTGTCGGGCGCGCCCCGGCGGGCGGCGGCTCGCCACGAGGAAACCGCTGCGCTCACGGCGCCGACGGAGTAAATTCATTACTGACTGAGTTTTCAGTTCGTCTGTACAAGGAGGTACCCCGCACCATGGCCCGATCCTTCGTCGTCG (double strand) [33470p]
  binding result: binds
